The chains behind the UniProt entries cited, without tags or fusion partners. Where a name states a change or a piece, a line headed by the entry shows the natural chain unless it says otherwise.
UniProt Q1D3Z1: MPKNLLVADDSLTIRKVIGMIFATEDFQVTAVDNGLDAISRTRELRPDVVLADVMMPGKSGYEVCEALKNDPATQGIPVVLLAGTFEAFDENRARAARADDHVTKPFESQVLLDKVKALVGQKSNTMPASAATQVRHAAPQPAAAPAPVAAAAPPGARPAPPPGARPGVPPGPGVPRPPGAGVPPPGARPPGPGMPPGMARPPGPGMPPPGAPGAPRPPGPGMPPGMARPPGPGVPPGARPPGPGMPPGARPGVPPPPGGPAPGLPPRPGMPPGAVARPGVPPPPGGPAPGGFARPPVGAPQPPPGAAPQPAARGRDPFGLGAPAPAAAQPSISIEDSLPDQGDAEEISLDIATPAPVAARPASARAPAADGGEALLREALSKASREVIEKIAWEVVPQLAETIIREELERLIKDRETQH

According to paper PMC3441718:

How the values were obtained:
[1] = target: T1, N-terminally GST-tagged MglA (M. xanthus) (UniProt Q1DB04); assay: pull-down; 0.2 mg purified His6-RomR mixed with 0.2 mg purified GST-MglA or GST, glutathione beads, buffer D (50 mM NaH2PO4 pH 8.0, 300 mM NaCl), 5 h, 4°C; elution with 10 mM glutathione; immunoblot with anti-GST and anti-RomR; both purified
T1 sequence: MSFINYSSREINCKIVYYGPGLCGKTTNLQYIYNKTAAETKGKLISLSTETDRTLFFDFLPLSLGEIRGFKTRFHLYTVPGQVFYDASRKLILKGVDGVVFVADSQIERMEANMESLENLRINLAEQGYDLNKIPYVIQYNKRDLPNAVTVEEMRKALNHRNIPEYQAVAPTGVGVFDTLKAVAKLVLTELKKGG

[2] = target: MalE-tagged RomR (M. xanthus) (UniProt Q1D3Z1); assay: pull-down; 0.2 mg purified His6-MglB mixed with 0.2 mg purified MalE-RomR or MalE, amylose beads, buffer D (50 mM NaH2PO4 pH 8.0, 300 mM NaCl), 5 h, 4°C; elution with 10 mM maltose; immunoblot with anti-MalE and anti-MglB; both purified

Q: Which binding [1] does the source give for “N-terminally His6-tagged RomR (from UniProt Q1D3Z1)” here?
A: Its binding is “binds”.

B1: N-terminal His6-tagged MglB (protein, UniProt Q1DB03 1-159)
chain: MGTQLVMYEEEFTKINAVCDRLTKDANAKVVFLVDKNGQLISSAGQTQNIDTTSLASLTAGNVAAMGGLAKLIGENEFPNQFHEGAKDSLYMTIVGSRVVLVVIFDNRTSLGLVRLRIKKASDELTKIFESLVKKTDSPGAGSPFAEISDDDIDNLFSE
Q: With B1 as the molecule, how does the binding [2] read?
A: The binding was “binds”.

No constants are given. Whether binding was seen depends on the method and setting. Binding can be weak; no strength is given. Sequences can lack the tags named with a protein.
